Percent effect of library compounds

Sequences of proteins named here, by UniProt entry; tags and fusion partners are left off. Residues count along the entry.
UniProt Q4DA54, 1-478: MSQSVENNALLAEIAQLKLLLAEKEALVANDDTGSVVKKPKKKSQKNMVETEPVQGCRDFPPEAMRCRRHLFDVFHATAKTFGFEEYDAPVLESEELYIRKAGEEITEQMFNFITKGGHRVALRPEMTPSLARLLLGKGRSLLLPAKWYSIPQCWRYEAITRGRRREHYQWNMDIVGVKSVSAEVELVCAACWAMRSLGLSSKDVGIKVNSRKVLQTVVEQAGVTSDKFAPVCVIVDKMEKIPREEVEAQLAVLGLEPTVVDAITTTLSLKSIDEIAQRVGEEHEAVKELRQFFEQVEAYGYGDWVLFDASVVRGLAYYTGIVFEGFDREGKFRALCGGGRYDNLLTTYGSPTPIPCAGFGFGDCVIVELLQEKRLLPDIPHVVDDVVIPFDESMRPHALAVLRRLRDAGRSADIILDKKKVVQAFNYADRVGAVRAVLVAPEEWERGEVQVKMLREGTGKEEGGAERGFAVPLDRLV

The values are deposited in ChEMBL (CHEMBL3988442, “University of Dundee, Small-Polar-MMV Screening Library” (2021)).

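Histidine-tRNA ligase, Trypanosoma cruzi CL Brener (UniProt Q4DA54). Enzyme assay of histidyl-tRNA synthetase; the read-out is not stated. Concentration: 30 µM. The record gives no direction; compounds that gave an IC50 in retests scored well above the rest, so higher reads as stronger inhibition. Size under these conditions: about 69,000 compounds, about 31 of them at 50% or above in at least one test.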

Results are given as percent effect.
How 0% and 100% were set is not recorded. Most values in the screen are low, and negative values occur.
This is an unselected part of the compounds tested.

structure,Percent Effect
CCn1nc(CC(C)C)cc1C(=O)N1CCCOC(CN2CCCC2)C1 (stereo not given),10.87
Cc1cccc(N(CC(=O)N2CCCCC2)Cc2nc(=O)[nH][nH]2)c1,5.028
N[C@@H](Cc1ccccc1)c1nnc(S(=O)(=O)Cc2ccc(Cl)cc2)o1,4
CCN(CC)C(=O)Cn1ccc2cc(NC(=O)C3CC3)ccc21,1.901
Cn1cc(CN2C[C@@H]3OCCN(CC4CCCC4)[C@@H]3C2)cn1,6.522
COCC1CCN(S(=O)(=O)NCC2COc3ccccc3C2)CC1 (stereo not given),4.933
Cc1ccc(-n2cccn2)cc1S(=O)(=O)N1C[C@H](C2CC2)[C@@H](N)C1,2.4
COCC1CC2(CCN(CC3CC3)CC2)CN1c1ncccn1 (stereo not given),2.941
Cc1ccccc1CSc1ncccc1C(=O)N(C)C,1.136
CNC(=O)[C@@H]1C[C@H]2CN(Cc3csc(C)n3)C[C@H]2N1C(C)C,11.73
COc1ccc(CN2CC[C@@]3(C2)[C@H](O)CN(C)S3(=O)=O)cc1F,4.624
CC(C)N1CCCC(C(=O)N2CCc3c(nc(CC4CC4)[nH]c3=O)C2)C1 (stereo not given),0
CNC(=O)NC(=O)C(NCc1cccs1)c1ccccc1 (stereo not given),4.217
CC1=C(CCN2CC[C@@H](N3CCC(O)CC3)[C@H](O)C2)C(C)(C)CCC1,5.063
Cc1nc(CN2CCc3cc(C(=O)O)c(N(C)C)nc3CC2)cs1,10.48
COc1ccc(F)cc1CN1CCCC1Cn1nc(C)nc1C (stereo not given),7.123
Cc1cccc(CN2C[C@@H](NC(=O)C3CCC3)[C@H]3COC[C@H]32)n1,2.151
Cc1cccc(C2(O)CCN(C(=O)c3ccccn3)CC2)c1C,0.5405
COCCc1noc(-c2cn(CCc3ccccc3)nn2)n1,-2.899
Cc1cnc(N2CCn3c(CN4CCOCC4)nnc3C2)nc1,5.806
C1Cc2nc(CCNc3nc(C4CC4)nc4c3CCNCC4)sc2C1,-2.899
Nc1nc(N2CCCC(COc3ccc(F)cc3)C2)c2nc[nH]c2n1 (stereo not given),16.02
CCC(CC)C(=O)c1c[nH]c(C(=O)N2CCN(c3ccccc3)CC2)c1,8.333
CC(C)C(C(=O)N1CCC(Nc2cccnn2)CC1)n1cncn1 (stereo not given),2.256
CCc1ccc(C(=O)N2CCCC(n3cncn3)C2)o1 (stereo not given),7.317
CSCc1noc(CNC(=O)[C@H]2CNC[C@@H](C(=O)N3CCCC3)C2)n1,4.103
Cc1nc(C(C)Nc2ncnc3c2CCNCC3)c(C)s1 (stereo not given),4.972
CCOc1ccnc(N2CCN(C(=O)c3ccoc3)CC2)n1,1.156
CC(C)CS(=O)(=O)Nc1ccc([C@H]2OCC(=O)N[C@@H]2CO)cc1,3.483
O=C(c1cnc(NCC2CCCO2)c(Cl)c1)N1CCCCC1 (stereo not given),1.031
Cc1csc(C2CCCCN2C(=O)c2cc(C)n(C)n2)n1 (stereo not given),0.5714
CC(C)(C)S(=O)(=O)c1ccc(N2CCN(c3ccccc3)CC2)nn1,1.031
O=C(Cc1ccccn1)N1CC[C@]2(C[C@@H](Oc3ncccc3F)CO2)C1,4.386
Cc1cc(C)n(C2CCCN(C(=O)C3=NN(C)C(=O)CC3)C2)n1 (stereo not given),-0.7519
C=C(C)CN(CC)S(=O)(=O)c1cccc(F)c1C#N,-3.03
COc1ccccc1CC(=O)NC1CCCc2cn[nH]c21 (stereo not given),7.317
c1ccc(NCc2cn3c(n2)CN(Cc2nccs2)CC3)nc1,9.453
Cc1noc(-c2ccnc(N3CCN(C4CCOCC4)CC3)c2)n1,5.882
CC(NC(=O)NCC1(N2CCCCC2)CCCCC1)c1nncn1C (stereo not given),-1.515

The first 5 entries again:

- CCn1nc(CC(C)C)cc1C(=O)N1CCCOC(CN2CCCC2)C1 (stereo not given) | 10.87%
- Cc1cccc(N(CC(=O)N2CCCCC2)Cc2nc(=O)[nH][nH]2)c1 | 5.028%
- N[C@@H](Cc1ccccc1)c1nnc(S(=O)(=O)Cc2ccc(Cl)cc2)o1 | 4%
- CCN(CC)C(=O)Cn1ccc2cc(NC(=O)C3CC3)ccc21 | 1.901%
- Cn1cc(CN2C[C@@H]3OCCN(CC4CCCC4)[C@@H]3C2)cn1 | 6.522%